US20200002403A1 (UNIVERSITY COURT OF THE UNIVERSITY OF ABERDEEN, published 2020)
Results are given in words; binding and its absence hold for the method and conditions named. A result given as binding can be weak or reduced; the word gives no strength.

Target: DLL4 (Homo sapiens (Human))
Assay: lead clones against targets used to screen ELSS1; alignment legend

B1: SEQ ID NO 143 (VNAR)
VNAR: TRVDQTPRTATKETGESLTINCVLTDTNYSLYATSWFRKNPGTTDWERMSIGGRYVESVNKGAKSFSLRIKDLTVADSATYICRAVWFPYFISDMWDVYGAGTVLTVN
For B1, the binding was “binds”.

B2: SEQ ID NO 77 (VNAR)
VNAR: TRVDQTPRTATKETGESLTINCVLTDTRYALFATSWFRKNPGTTDWERMSIGGRYVESVNKGAKSFSLRIKDLTVADSATYICRAAWQPYNVDSIWDVYGAGTVLTVN
B2 was tested, and the binding was “binds”.

B3: SEQ ID NO 154 (VNAR)
VNAR: TRVDQTPRTATKETGESLTINCVLTDTSYALSATSWFRKNPGTTDWERMSIGGRYVESVNKGAKSFSLRIKDLTVADSATYICRAAWWPFMIEETTDVYGAGTVLTVN
B3 was tested, and the binding was “binds”.

B4: SEQ ID NO 146 (VNAR)
VNAR: TRVDQTPRTATKETGESLTINCVLTDTDYGLYATSWFRKNPGTTDWERMSIGGRYVESVNKGAKSFSLRIKDLTVADSATYICRAVWKPYMVVHLWDVYGAGTVLTVN
For B4, the binding was “binds”.

B5: SEQ ID NO 148 (VNAR)
VNAR: TRVDQTPRTATKETGESLTINCVLTDTDYSLFSTSWFRKNPGTTDWERMSIGGRYVESVNKGAKSFSLRIKDLTVADSATYICRAVWMPYTVVDSSDVYGAGTVLTVN
For B5, the binding was “binds”.

B6: SEQ ID NO 153 (VNAR)
VNAR: ASVNQTPRTATKETGESLTINCVLTDTKYLYSTSWFRKNPGTTDWERMSIGGRYVESVNKGAKSFSLRIKDLTVADSATYICRAWTSFEEQVKDVYGAGTVLTVN
In the case of B6, the binding is reported as “binds”.

B7: SEQ ID NO 138 (VNAR)
VNAR: ASVNQTPRTATKETGESLTINCVLTDTFASSHHTSWFRKNPGTTDWERMSIGGRYVESVNKGAKSFSLRIKDLTVADSATYICRAVHPFSRVENIWDVYGAGTVLTVN
In the case of B7, the binding is reported as “binds”.
